Drawing on PubChem BioAssay AID2685 (National Center for Advancing Translational Sciences (NCATS), 2010), this text covers cell number change and AC50 for 60 molecules.

This experiment in a line: qHTS Assay for Lipid Storage Modulators in Drosophila S3 Cells.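 For cell number change: cells counted by Cell Tracker Red CMTPX staining in the red channel.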 The conditions noted are these: BODIPY lipid droplet fluorescence, 18-24 h; for cell number change: measured here: cell count max response, cells fed with added oleic acid. In short, it runs like this:
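Drosophila S3 cells got compounds at several concentrations plus oleic acid (400 uM solution). Laser-scanning cytometry with 488 nm excitation read lipid droplets at 500-530 nm and cells at 575-640 nm. Percent activity was relative to 20 uM Triacsin C.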

The mark [1] stands for this setting: measured here: cell number channel AC50, cells fed with added oleic acid.
Where [2] appears, read: measured here: lipid fluorescence (Fed channel) AC50, cells fed with added oleic acid.

This is one part of the list. The main result of the screen is listed elsewhere. These columns were measured beside it and carry no call. Compounds called inactive in the main read-out are mostly missing here. The note in brackets gives the kind of curve behind each potency; many fits are weak.

As usually defined, the AC50 is the midpoint of the concentration-response curve, whichever way the signal moves. The low end stands for activity at low concentration, the high end for activity only at high concentration. Turning to `Cc1nn(-c2ccccc2)c2c1C(c1ccc(O)c(O)c1)N1C(=N2)C(Nc2ccccc2)=Nc2ccccc21` (stereo unspecified), the cell number change is -65.1%. For the same molecule, under setting [1], the AC50 is 25.9 µM [falling, partial curve]. Further, the AC50 under setting [2] was 25.9 µM [falling, partial curve].

`Cc1ccc(O)c(-c2cc(-c3ccccc3F)[nH]n2)c1`: the cell number change was -27.5%. For the same molecule, the AC50 under setting [2] is 4.11 µM [falling, partial curve].

For the molecule `Cc1cccc(OCCCC(=O)Nc2ccc(S(=O)(=O)Nc3nccs3)cc2)c1C`, the cell number change was -24.3%. Also, the AC50 under setting [1] was 0.82 µM [rising, full curve].

For `Cc1nc2ccccc2cc1OCc1ccc(Cl)cc1`, the cell number change was -15.7%. The AC50 under setting [2] was 23.1 µM [falling, partial curve].

In the case of `OCCN(Cc1ccccc1)CC1CC2C=CC1C2` (stereo unspecified), the AC50 under setting [2] is 0.092 µM [falling, full curve, poor fit].

Take `O=[N+]([O-])c1ccc(CSC2=NCCS2)cc1`: the cell number change is -18.6%. Besides, the AC50 under setting [2] is 9.2 µM [falling, single point].

On to `CCN(Cc1ccccc1)C(=O)c1ccc(NC(=O)c2ccc(OC)cc2)cc1`, for which the cell number change is -50.5%. Further, the AC50 under setting [1] is 10.3 µM [falling, partial curve, poor fit]. Further, the AC50 under setting [2] was 29.1 µM [falling, single point].

Take `COC(=O)C(C)NC(=O)COc1ccc2ccccc2c1` (stereo unspecified): the cell number change was -26.5%. In addition, the half-maximal activity concentration (AC50) under setting [2] was 8.2 µM [falling, partial curve].

`O=C(N/N=C/c1ccncc1)c1cccc([N+](=O)[O-])c1`: the cell number change is 17.4%. The AC50 under setting [2] is 4.11 µM [rising, full curve, poor fit].

On to `CC(=O)Nc1cccc(NC(=O)c2ccccc2OCc2ccccc2)c1`, for which the AC50 under setting [2] was 0.13 µM [falling, full curve].

`COc1cc2c(cc1NC(=S)NC(=O)/C=C/c1ccco1)oc1ccccc12`: the cell number change is -49.9%. Also, under setting [1], the AC50 is 4.61 µM [falling, full curve].

On to `COC(=O)/C=C1/S/C(=N/NC(=O)c2ccccc2OC)NC1=O`, for which the cell number change is -8.73%. Further, the AC50 under setting [2] was 5.8 µM [rising, full curve].

Turning to `Cc1cc(CN(C)C(=O)c2ccc(OC3CCN(Cc4ccccn4)CC3)cc2)on1`, the cell number change is -1.65%. Moreover, the AC50 under setting [2] was 0.116 µM [falling, single point].

For `CC(=O)Oc1ccc(N2C(=O)C3C4C=CC(O4)C3C2=O)cc1` (stereo unspecified), the cell number change was -35.3%. The AC50 under setting [1] was 29.1 µM [falling, single point]. Besides, under setting [2], the AC50 was 29.1 µM [falling, single point].

In the case of `COc1cc(/C=N/NS(=O)(=O)c2ccc(Br)cc2)ccc1O`, the AC50 under setting [2] was 14.6 µM [rising, partial curve].

Take `COCCNC(=O)c1csc(Nc2cccc3ccccc23)n1`: the cell number change is -22%. Further, the AC50 under setting [2] is 18.4 µM [falling, single point].

As to `O=C(Nc1ccncc1)c1cc(-c2ccccn2)nc2ccc(Br)cc12`, the cell number change stood at 161%.

Turning to `COc1cccc(C(=O)Cn2c(Br)nc3c2c(=O)n(C)c(=O)n3C)c1`, the cell number change stood at 32.1%. Moreover, under setting [1], the AC50 was 29.1 µM [rising, single point]. Besides, the AC50 under setting [2] was 20.6 µM [rising, single point].

Regarding `COCC1CCN(C(=O)c2cc(COc3ccc(C)c(C)c3)on2)C1` (stereo unspecified), the cell number change turned out to be 11.3%. The AC50 under setting [2] was 2.31 µM [rising, partial curve, poor fit].

As for `Clc1ccccc1C1=Nn2c(nnc2-c2ccncc2)SC1`, the cell number change is -18.7%. Moreover, the AC50 under setting [2] is 0.092 µM [falling, full curve, poor fit].

Consider `COc1ccc(/C(O)=C2/C(=O)C(=O)N(c3ncccn3)C2c2ccc(F)cc2)cc1` (stereo unspecified), for which the cell number change was -49.8%.

On to `O=S(=O)(NCC(c1ccc2c(c1)OCO2)N1CCOCC1)c1ccc(Br)cc1` (stereo unspecified), for which the cell number change is 43.7%. Further, under setting [1], the AC50 is 20.6 µM [rising, partial curve]. In addition, under setting [2], the AC50 was 0.103 µM [rising, full curve, poor fit].

On to `CCN1CCN(C(=O)c2ccc(CN(c3ccccc3)S(=O)(=O)c3ccccc3)cc2)CC1`, for which the AC50 under setting [1] was 2.91 µM [rising, single point].

On to `COc1ccc(-c2nn3c(C4CCCCC4)nnc3s2)cc1OC`, for which the AC50 was 0.731 µM [falling, single point] under setting [1] and 1.03 µM [falling, single point] under setting [2].

Regarding `O=C(CCn1c(=O)oc2cc(Cl)ccc21)Nc1ccc(N2CCOCC2)cc1`, the cell number change was -31.4%. Further, the AC50 under setting [1] was 0.058 µM [falling, full curve, poor fit]. In addition, the AC50 under setting [2] is 6.51 µM [rising, single point].

As for `COc1ccc(C(=O)C[n+]2cccc3cc(C)ccc32)cc1`, the cell number change is -17.1%. In addition, the AC50 under setting [2] was 16.4 µM [falling, single point].

In the case of `O=C(CSc1nnc(-c2ccco2)n1Cc1ccccc1)c1ccc(F)cc1`, the cell number change is 1.1%. The AC50 under setting [2] was 25.9 µM [rising, partial curve].

For the molecule `COc1ccc(-c2csc(NC(=O)C(CC(=O)O)N3CCOCC3)n2)cc1` (stereo unspecified), the cell number change is 1.92%. Under setting [2], the AC50 was 29.1 µM [rising, single point].

For the molecule `Cc1ccc(S(=O)(=O)/N=c2\sccn2C)cc1`, the cell number change is -31.9%. In addition, the AC50 under setting [1] was 32.6 µM [falling, partial curve, poor fit].

As to `O=C(NCCc1cccs1)C1CC(c2ccccc2[N+](=O)[O-])=NO1` (stereo unspecified), the cell number change is -12%.

For `COc1ccccc1NC(=O)c1ccc2c(c1)C(=O)N(c1ccccc1OC)C2=O`, the cell number change was -22.3%. Moreover, under setting [2], the AC50 was 14.6 µM [falling, single point].

For the molecule `O=C(CSc1nnc2c(n1)[nH]c1ccccc12)Nc1ccc(N2CCOCC2)cc1`, the cell number change is 9.64%.

Consider `CSc1ccc(OC2CCCCC2NS(=O)(=O)c2ccc(Cl)cc2)cc1` (stereo unspecified), for which the cell number change was 30.3%. In addition, the AC50 under setting [1] is 4.11 µM [rising, partial curve, poor fit].

Consider `COc1ccc(CN2CCCC(CNC(=O)c3ccc(F)cc3)C2)cc1OC` (stereo unspecified), for which the cell number change was -41.4%. Also, the AC50 under setting [1] was 5.8 µM [falling, full curve]. Besides, the AC50 under setting [2] is 8.2 µM [falling, partial curve, poor fit].

Consider `O=C(CSc1cn(Cc2ccccc2)c2ccccc12)Nc1nccs1`, for which the cell number change was -9.17%. In addition, the AC50 under setting [1] is 0.184 µM [rising, partial curve].

As to `CC(=O)c1ccc(N2CCN(C(=O)c3cc4c(-c5ccccc5F)nn(C)c4s3)CC2)cc1`, the AC50 was 6.51 µM [rising, single point] under setting [1] and 7.31 µM [rising, partial curve, poor fit] under setting [2].

On to `CC(=O)Nc1ccc(C(=O)OCC(=O)N(c2ccccc2)C2CCS(=O)(=O)C2)cc1` (stereo unspecified), for which the cell number change amounted to 6.33%. Besides, the AC50 under setting [2] is 0.00461 µM [rising, full curve].

For the molecule `CCc1ccc(C(=O)COC(=O)CNC(=O)C2CCCCC2)cc1`, the cell number change was found to be 27.9%. In addition, the AC50 under setting [1] is 0.461 µM [falling, single point].

Regarding `CC1(C)CC(=O)C(C=NCCc2ccccn2)=C(O)C1`, the cell number change came to 3.04%. For the same molecule, the AC50 under setting [2] was 0.651 µM [falling, partial curve, poor fit].

Turning to `c1ccc(CNc2nc3ccccc3[nH]2)cc1`, the cell number change is -18.2%. Also, the concentration at half-maximal activity (AC50) under setting [1] was 6.51 µM [falling, single point].

Regarding `CN(CCC1CCOCC1)C(=O)CC1C(=O)NCCN1C/C=C/c1ccccc1` (stereo unspecified), the cell number change is -21.7%. Besides, the AC50 under setting [2] is 0.164 µM [falling, partial curve, poor fit].

Turning to `O=C(c1cc2nc(-c3ccccc3)cc(-c3ccccc3)n2n1)N1CCN(C(=O)c2ccco2)CC1`, the cell number change is 4.51%. Moreover, the AC50 under setting [1] was 1.64 µM [rising, partial curve]. Also, the AC50 under setting [2] is 0.731 µM [rising, partial curve].

As to `O=C1NCCCN1Cc1ccc(F)cc1Cl`, the cell number change is 12.6%.

Consider `O=C(Nc1cccc(S(=O)(=O)N2CCCCC2)c1)c1ccco1`, for which the cell number change was found to be 3.09%. In addition, under setting [2], the AC50 was 6.51 µM [rising, single point].

As for `CC(=O)Nc1ccc2nc(CN3CCN(Cc4ccc(F)cc4)C(CCO)C3)ccc2c1` (stereo unspecified), the cell number change was determined as 17.3%. Further, the AC50 under setting [2] was 29.1 µM [rising, single point].

`CC(NC(=O)c1ccccc1NC(=O)CSc1nnnn1C)c1ccccc1` (stereo unspecified): the cell number change amounted to 19.6%. In addition, the AC50 under setting [2] is 4.61 µM [falling, single point].

Consider `CCC(C)(C)NC(=O)C(c1ccc(O)cc1)N(C(=O)Cn1nnc2ccccc21)c1ccc(NC(C)=O)cc1` (stereo unspecified), for which the cell number change is -7.33%. For the same molecule, the AC50 under setting [2] was 6.51 µM [falling, single point].

Take `Cc1ccc(C(=O)COC(=O)c2ccncc2)cc1[N+](=O)[O-]`: the cell number change was -12%. Further, under setting [2], the AC50 is 0.00411 µM [rising, full curve, poor fit].

As for `NC(=O)c1ccccc1N/C=C/C(=O)c1ccc(Cl)cc1`, the cell number change was -22.4%. Under setting [2], the AC50 is 10.3 µM [rising, single point].

With `Cc1ccc(C(=O)NC(=S)N2CCCCCC2)cc1`, the cell number change was 17%. For the same molecule, the half-maximal activity concentration (AC50) under setting [2] is 0.146 µM [falling, full curve, poor fit].

For `COc1cc2cc(CCCOC(=O)c3ccc(Br)cc3)oc(=O)c2cc1OC`, the cell number change is -13.1%. In addition, under setting [2], the AC50 is 0.517 µM [rising, partial curve].

`CN(Cc1ccccc1)C(=O)COC(=O)c1ccc(S(=O)(=O)N(C)C)cc1`: the cell number change stood at 83.8%. Further, the AC50 under setting [1] was 14.6 µM [rising, partial curve].

Regarding `O=C(Nc1cccc(-c2nc3ncccc3o2)c1)c1ccco1`, the cell number change came to 59.7%. In addition, under setting [1], the AC50 was 1.3 µM [rising, full curve]. The AC50 under setting [2] was 2.91 µM [rising, partial curve].

Turning to `CN(C)c1ccc(NC(=O)CN2CCc3ccccc3C2)cc1`, the cell number change was 8.87%.

Turning to `Cc1cc(C)c(NC(=O)CS(=O)CC(=O)Nc2cccnc2)c(C)c1` (stereo unspecified), the cell number change is -10.6%. Also, the AC50 under setting [2] is 0.82 µM [rising, full curve, poor fit].

`COc1ccc(NC(=O)c2cccc(C(=O)Nc3ccc(OC)cc3)n2)cc1`: the cell number change worked out at 6.37%.

For the molecule `Cc1cc2cccc(C)c2nc1SCC(=O)NNC(=O)c1ccco1`, the cell number change worked out at 1.94%.

For `Cc1ccc(CN(c2ccc(C(=O)N3CCCC3)cc2)S(C)(=O)=O)cc1`, the cell number change is -5.1%.

For `Cc1cccc(NC(=O)c2ccc(NCCc3ccccc3)c([N+](=O)[O-])c2)c1`, under setting [2], the AC50 was 18.4 µM [falling, partial curve].

Take `CC1(C2(O)CC(c3ccccc3)ON2)CCCCC1` (stereo unspecified): the cell number change was -74.3%. Also, under setting [1], the AC50 is 4.11 µM [falling, full curve]. Moreover, under setting [2], the concentration at half-maximal activity (AC50) was 20.6 µM [falling, single point].
